Experimental data taken from US9017644B2, “Methods of treating autoimmune disorders and/or inflammatory disorders” (priority 2008, dated 2015).
Some results were stated once for a whole list of compounds, not compound by compound.

Tested on: developing type II collagen arthritis
Test: Rat collagen arthritis model, prophylactic IV treatment 3x/week, day 0-16 (Example 3)
Assay type: in vivo
Settings: Batch 1 and Batch 2 70 mg/kg, MTX 0.2 mg/kg, IV 3x/week; p<0.05
Excerpt: Rat collagen induced arthritis is an experimental model of polyarthritis that has been widely used for preclinical testing of numerous anti-arthritic agents. Rat type II collagen arthritis results when rats are immunized against homologous or heterologous type II collagen. […] As used herein “significant” means that p≦0.05. Unless specified as “normal control” or “disease control” reference to “animal” means a rat with developing type II collagen arthritis.
Bovine Type II collagen (Sigma) was diluted with 0.1N acetic acid to a concentration of 4 mg/ml. and emulsified with an equal volume of Freund's incomplete adjuvant (Sigma).
The rats were anesthetized and given collagen injections spread over 3 subcutaneous sites on back on day 0 and day 6.

Compound: CN(Cc1cnc2nc(N)nc(N)c2n1)c1ccc(C(=O)N[C@@H](CCC(=O)O)C(=O)O)cc1 [MTX, Methotrexate]
- study days with significant inhibition of ankle diameter as compared to disease controls: 10 to 17 days
